In this experiment the test system is primary human hepatic stellate cells (donor 1). Nature of the experiment: percent Bodipy-positive cells; higher = more lipid droplet accumulation. The settings on record: 48 h. The procedure: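 Primary lipid accumulation screen in primary human hepatic stellate cell myofibroblasts (donor 1, passage 8) in 384-well plates. 100 nL of library compound was pin-transferred into 30 µL medium in duplicate, and cells were treated for 48 h. The 'Scaled' score combines distance from plate baseline, toxicity and reproducibility penalties, and is normalised to nortriptyline (positive) and DMSO (negative) controls on each plate. A hit is defined as scaled >0.85 or among the top 3 wells per plate.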

Setting [1] is: library stock concentration: 10 mM.
Setting [2] is: library stock concentration: 1 mM.
The mark [3] stands for this setting: library stock concentration: 3.33 mM.
Where [4] appears, read: library stock concentration: 400 uM.
The mark [5] stands for this setting: library stock concentration: 80 uM.
Where [6] appears, read: library stock concentration: 2 mM.

Values joined by “and” are separate entries in the source; they are usually repeats but may differ in a detail not shown here. Identical values can stand only once. Counter-ions that a name gives are not always drawn. ± gives the standard deviation of the averaged measurements. This is one part of the list. Baselines shift from plate to plate; read single values as rough.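 Assay uses culture-activated primary human stellate myofibroblasts; lipid droplet recovery indicates inactivation. Measured: proportion of Hoechst-counted cells over a plate-specific Bodipy cutoff, duplicate wells, DMSO and nortriptyline as per-plate negative and positive controls. A hit scores, control-normalized, above the plate's top-tenth-percentile nortriptyline wells or ranks among its three best wells. Final well concentrations not reported.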

In the case of `Oc1ccc(/C=C/c2cc(O)cc(O)c2)cc1`, the “percent Bodipy-positive cells” value under setting [1] is 15.1 ± 7.2%.
As to `CCCCC[C@](C)(O)/C=C/[C@@H]1[C@@H](C/C=C\CCCC(=O)OC)[C@@H](O)C[C@H]1O` [15(S)-15-methyl Prostaglandin F2.alpha. methyl ester], the “percent Bodipy-positive cells” value under setting [2] turned out to be 14.3 ± 6.7%.
Regarding `COc1ccc(C2=NC(c3ccc(Cl)cc3)C(c3ccc(Cl)cc3)N2C(=O)N2CCNC(=O)C2)c(OC(C)C)c1` (stereo not given) [Nutlin-3a], the “percent Bodipy-positive cells” value under setting [3] turned out to be 60.5 ± 4.4%.
Take `COc1ccc(C2=NC(c3ccc(Cl)cc3)C(c3ccc(Cl)cc3)N2C(=O)N2CCNC(=O)C2)c(OC(C)C)c1` (stereo not given) [Nutlin-3b]: the “percent Bodipy-positive cells” value under setting [3] was determined as 42.1 ± 1.6% and the “percent Bodipy-positive cells” value under setting [1] worked out at 61.4 ± 13%.
Regarding `COc1ccc(/C=C/C(=O)Nc2ccccc2C(=O)O)cc1OC`, the “percent Bodipy-positive cells” value under setting [1] is 7.3 ± 4.3%.
Regarding `COc1ccc(/C=C/C(=O)Nc2ccccc2C(=O)O)cc1OC` [Tranilast], the “percent Bodipy-positive cells” value by setting is: under setting [2], 17.6 ± 13%; under setting [3], 7.18 ± 3.1%; (library stock concentration: 6.1 mM) 8.4% and 2.12%; under setting [1], 17% and 14.5% and 9.72%.
Turning to `CCN(CC)CCNC(=O)c1c(C)[nH]c(/C=C2\C(=O)Nc3ccc(F)cc32)c1C`, the “percent Bodipy-positive cells” value under setting [4] was determined as 44.7 ± 15% and the “percent Bodipy-positive cells” value under setting [1] was 100%.
As for `CCN(CC)CCNC(=O)c1c(C)[nH]c(/C=C2\C(=O)Nc3ccc(F)cc32)c1C` [Sunitinib Malate], the “percent Bodipy-positive cells” value was determined as 100% under setting [3] and 98.8 ± 1.8% under setting [1].
`CCN(CC)CCNC(=O)c1c(C)[nH]c(/C=C2\C(=O)Nc3ccc(F)cc32)c1C` [Sunitinib malate]: the “percent Bodipy-positive cells” value reads like this: under setting [5], 25.2 ± 12%; under setting [4], 25.8 ± 14%; under setting [1], 100%.
`COc1cc(C(=O)NC2CCN(C)CC2)ccc1Nc1ncc2c(n1)N(C1CCCC1)CCC(=O)N2C(C)C`: the “percent Bodipy-positive cells” value is 10.8 ± 3.6% under setting [5], 22.5 ± 3% under setting [4] and 35.6 ± 6.2% under setting [6].
On to `CCCCC[C@H](O)/C=C/[C@H]1[C@H](O)CC(=O)[C@@H]1CCCCCCC(=O)NCCO` [Prostaglandin E1 Ethanolamide], for which, under setting [2], the “percent Bodipy-positive cells” value was 14 ± 2.6%.
Regarding `COc1cc(C[C@@H](CO)[C@H](CO)Cc2ccc(O)c(OC)c2)ccc1O`, under setting [1], the “percent Bodipy-positive cells” value is 13.2 ± 3.1%.
As to `CN(C)C(=O)C(CCN1CCC(O)(c2ccc(Cl)cc2)CC1)(c1ccccc1)c1ccccc1` [Loperamide hydrochloride], the “percent Bodipy-positive cells” value was determined as 64.1 ± 2.6%. The “percent Bodipy-positive cells” value under setting [1] was 99.4% and 80.8%.
As for `CN(C)C(=O)C(CCN1CCC(O)(c2ccc(Cl)cc2)CC1)(c1ccccc1)c1ccccc1` [Loperamide HCl], the “percent Bodipy-positive cells” value is, setting by setting: under setting [3], 43.6 ± 3%; under setting [1], 98.55 ± 0.61%.
With `Cc1ccccc1C(=O)Nc1ccc(C(=O)N2CCCC(O)c3cc(Cl)ccc32)c(C)c1` (stereo not given) [Tolvaptan], the “percent Bodipy-positive cells” value under setting [3] turned out to be 8.34 ± 5.3% and the “percent Bodipy-positive cells” value under setting [1] came to 10.7 ± 0.95%.
Consider `COc1ccccc1N1CCN(CCN2C(=O)c3ccccc3C(C)(C)C2=O)CC1` [ARC 239 dihydrochloride], for which the “percent Bodipy-positive cells” value under setting [1] was found to be 12.253 ± 0.012%.
Regarding `Clc1ccc(C2(c3ccc(-c4cn[nH]c4)cc3)CCNCC2)cc1`, the “percent Bodipy-positive cells” value under setting [6] was 85.4 ± 4.4% and the “percent Bodipy-positive cells” value under setting [1] was 100%.
On to `Nc1nc2[nH]cnc2c(=S)[nH]1` [Thioguanine], for which the “percent Bodipy-positive cells” value under setting [1] worked out at 21.6 ± 5.9% and the “percent Bodipy-positive cells” value (library stock concentration: 12 mM) was 8.62 ± 0.67%.
As to `CC(C)c1cc2c(c(O)c1O)[C@@]13CCCC(C)(C)[C@@H]1C[C@@H]2OC3=O` [Carnosol], under setting [2], the “percent Bodipy-positive cells” value worked out at 11.8 ± 10%.
As to `O=C1c2c(O)cccc2C([C@@H]2O[C@H](CO)[C@@H](O)[C@H](O)[C@H]2O)c2cc(CO)cc(O)c21` (stereo not given in full) [Aloin], under setting [3], the “percent Bodipy-positive cells” value was found to be 8.22 ± 0.75%.
For `NC(=S)NCCC[C@H](N)C(=O)O` [Thiocitrulline [L-Thiocitrulline]], for the setting “library stock concentration: 26.1 mM”, the “percent Bodipy-positive cells” value was determined as 7.14 ± 1.8%.
For the molecule `NC(=S)NCCC[C@H](N)C(=O)O` [L-Thiocitrulline (hydrochloride)], the “percent Bodipy-positive cells” value under setting [2] was found to be 12.4 ± 0.54%.
As to `O=C(Nc1cccc(C(F)(F)F)c1)Nc1cc(S(=O)(=O)NC2CC2)ccc1-c1ccsc1`, the “percent Bodipy-positive cells” value reads like this: under setting [3], 33.8 ± 1.1%; under setting [1], 71.3 ± 0.52%.
On to `CC(C(=O)O)c1ccc2c(c1)[nH]c1ccc(Cl)cc12` (stereo not given) [Carprofen], for which the “percent Bodipy-positive cells” value was 8.26 ± 2.3% under setting [3]; 16.5 ± 5.2% (library stock concentration: 7.3 mM); 30.1% and 36.9% under setting [1].
As for `CCCCc1cc2ccccc2c(OCCN(C)C)n1` [Dimethisoquin hydrochloride], the “percent Bodipy-positive cells” value amounted to 75.7 ± 4.2%.
Take `CO/N=C(\C(=O)N[C@@H]1C(=O)N2C(C(=O)O)=C(CSc3nnnn3C)CS[C@H]12)c1csc(N)n1`: the “percent Bodipy-positive cells” value under setting [1] came out at 30.3 ± 6%.
As for `NCCNc1ncc(C(N)=O)c(Nc2cccc(C(F)(F)F)c2)n1` [Syk Inhibitor II], the “percent Bodipy-positive cells” value under setting [3] amounted to 65.1 ± 1.1%.
`CC(C)N(CCC(=O)c1ccc2ccccc2c1)Cc1ccccc1.Cl`: under setting [1], the “percent Bodipy-positive cells” value stood at 90.6 ± 11%.
Turning to `CC(NC(=O)C(Cc1ccccc1)NC(=O)OCc1ccccc1)C(=O)CF` (stereo not given), the “percent Bodipy-positive cells” value by setting is: under setting [3], 50 ± 15%; under setting [1], 67.3 ± 6.8%.
With `Cc1cccc(C)c1NC(=O)C(C)N` (stereo not given), the “percent Bodipy-positive cells” value under setting [1] is 13.7 ± 2.5%.
Turning to `Cc1cccc(C)c1NC(=O)C(C)N` (stereo not given) [Tocainide hydrochloride], the “percent Bodipy-positive cells” value was determined as 10.7 ± 1%. Under setting [1], the “percent Bodipy-positive cells” value turned out to be 51.8 ± 19%.
`C=CCc1cccc(/C=N/NC(=O)CN2CCN(Cc3ccccc3)CC2)c1O`: the “percent Bodipy-positive cells” value runs as follows: under setting [2], 10.1 ± 1.9%; under setting [3], 17.8 ± 2.8%; under setting [1], 66.6% and 49.6% and 47.4%.
Take `O=C(O)C1CCCNC1` (stereo not given): the “percent Bodipy-positive cells” value turned out to be 8.23 ± 1.4%. Also, under setting [1], the “percent Bodipy-positive cells” value was 53.9 ± 2%.
Consider `COc1cc([S+](C)[O-])ccc1-c1nc2cccnc2[nH]1` (stereo not given) [Sulmazole], for which the “percent Bodipy-positive cells” value was found to be 7.09 ± 3.6%.
Regarding `O=C(NC1CCN(CCCCC2(C(=O)NCC(F)(F)F)c3ccccc3-c3ccccc32)CC1)c1ccccc1-c1ccc(C(F)(F)F)cc1` [Lomitapide], the “percent Bodipy-positive cells” value under setting [3] stood at 94.71 ± 0.55%.
For the molecule `NC(N)=NC(N)=Nc1cccc(Cl)c1` [m-Chlorophenylbiguanide hydrochloride], the “percent Bodipy-positive cells” value under setting [1] turned out to be 9.95 ± 3.3%.
For `NC(N)=NC(N)=Nc1cccc(Cl)c1` [1-(m-Chlorophenyl)-biguanide hydrochloride], the “percent Bodipy-positive cells” value under setting [1] is 49.3 ± 9%.

(Values after the supplement of paper PMC9135407.)
